# The list is a part of this screen's results and no random one: it is rich in T/C values a quarter to a half above the control, in often repeated tests (any T/C) and in doses without a T/C. Other doses and runs of a compound stand elsewhere. T/C gives the treated animals as a percentage of the vehicle group. Some entries give survivors of the animals treated and no T/C: the source files T/C as zero there, which appears to mark a toxic dose or a test without result, not a measured value. Some survivor counts are full or nearly so, which does not show that the dose was tolerated: survival well below the control is almost never listed, so the zero probably covers shortened survival too. Counts of survivors are from the toxicity check (mostly the fifth day) where no day follows; animals may have died later. Schedule codes are those of the source, taken here to give the interval after Q, in days (D) or hours (H), and the number of doses after X. Some entries hold several experiments; the values are given in rising order. Where survival is the endpoint, the PubChem record calls one and a half times the control and up active, and a quarter to a half above the control has no call in these data; cut-offs in other NCI protocols can differ. Some T/C values are followed by the survivors on the day toxicity was checked, most often the fifth; without a count, all were alive then.
# Tested on: P388 leukemia ip, CD2F1 mice, survival T/C
# Assay: NCI In Vivo Anticancer Drug Screen. Data for tumor model P388 Leukemia (intraperitoneal) in CD2F1 (CDF1) mice
# Details: T/C endpoint: median survival time, higher T/C = longer survival
# [1] = dose: 1.0 mg/kg/injection, schedule: Q01DX009 (ip), vehicle: water
# [2] = dose: 2.0 mg/kg/injection, schedule: Q01DX009 (ip), vehicle: water
smiles,measurement,setting,value
CCC1CC2CN(CCc3c([nH]c4ccccc34)C(C(=O)OC)(c3cc4c(cc3OC)N(C)C3C(O)(C(=O)OC)C(OC(C)=O)C5(CC)C=CCN6CCC43C65)C2)C1 (stereo unspecified),T/C,"dose: 0.1 mg/kg/injection, schedule: Q01DX009 (ip), vehicle: Klucel (hydroxypropylcellulose) (HPC)",141 % of control
same,T/C,"dose: 0.13 mg/kg/injection, schedule: Q01DX009 (ip), vehicle: water",147 % of control
same,T/C,"dose: 0.2 mg/kg/injection, schedule: Q01DX009 (ip), vehicle: Klucel (hydroxypropylcellulose) (HPC)",141 % of control
same,T/C,"dose: 0.25 mg/kg/injection, schedule: Q01DX009 (ip), vehicle: water","109, 127, 137, 145 % of control"
same,T/C,"dose: 0.5 mg/kg/injection, schedule: Q01DX009 (ip), vehicle: water","109, 133, 157, 190 % of control"
same,T/C,[1],"109, 116, 193 % of control [5 of 6 alive]"
same,survivor count,[1],4 of 6
same,survivor count,"dose: 1.6 mg/kg/injection, schedule: Q01DX009 (ip), vehicle: Klucel (hydroxypropylcellulose) (HPC)",6 of 6
same,T/C,[2],91 [5 of 6 alive] and 173 % of control
same,survivor count,[2],1 of 6 and 2 of 6
same,survivor count,"dose: 3.2 mg/kg/injection, schedule: Q01DX009 (ip), vehicle: Klucel (hydroxypropylcellulose) (HPC)",6 of 6
same,survivor count,"dose: 4.0 mg/kg/injection, schedule: Q01DX009 (ip), vehicle: water",1 of 6 and 3 of 6
same,survivor count,"dose: 4.0 mg/kg/injection, schedule: Q04DX003 (ip), vehicle: water",6 of 6
same,survivor count,"dose: 6.4 mg/kg/injection, schedule: Q01DX009 (ip), vehicle: Klucel (hydroxypropylcellulose) (HPC)",0 of 6
same,survivor count,"dose: 12.8 mg/kg/injection, schedule: Q01DX009 (ip), vehicle: Klucel (hydroxypropylcellulose) (HPC)",1 of 6
CC1=NN(c2cc(S(=O)(=O)O)ccc2Cl)C(=O)C1,survivor count,"dose: 400.0 mg/kg/injection, schedule: Q01DX009 (ip), vehicle: saline",5 of 6
CC1=CCC(=O)O1,survivor count,"dose: 50.0 mg/kg/injection, schedule: Q01DX009 (ip), vehicle: suspension in saline",6 of 6
CCN(CC)C(=O)c1cccc(COc2ccc(N3C(N)=NC(N)=NC3(C)C)cc2Cl)c1,T/C,"dose: 16.5 mg/kg/injection, schedule: Q01DX009 (ip), vehicle: saline with Tween-80",127 % of control
same,T/C,"dose: 25.0 mg/kg/injection, schedule: Q01DX009 (ip), vehicle: saline sonified",131 % of control
same,T/C,"dose: 25.0 mg/kg/injection, schedule: Q01DX009 (ip), vehicle: saline with Tween-80",140 % of control
same,survivor count,"dose: 37.5 mg/kg/injection, schedule: Q01DX009 (ip), vehicle: saline with Tween-80",3 of 6
same,survivor count,"dose: 200.0 mg/kg/injection, schedule: Q04DX003 (ip), vehicle: saline sonified",5 of 6
CC(C)COc1cccc2[oH+]c(C(=O)[O-])cc(=O)c12.CC(C)COc1cccc2[oH+]c(C(=O)[O-])cc(=O)c12.[Cu+2],survivor count,"dose: 100.0 mg/kg/injection, schedule: Q04DX002 (ip), vehicle: saline with Tween-80",1 of 6
same,survivor count,"dose: 200.0 mg/kg/injection, schedule: Q04DX002 (ip), vehicle: saline with Tween-80",0 of 6
same,survivor count,"dose: 400.0 mg/kg/injection, schedule: Q04DX002 (ip), vehicle: saline with Tween-80",0 of 6
CONCc1ccc(C(=O)NC(C)C)cc1,survivor count,"dose: 400.0 mg/kg/injection, schedule: Q01DX009 (ip), vehicle: distilled water + Tween-80",3 of 6
O=C1C=C(N2CC2)C(=O)C=C1N1CC1,T/C,"dose: 0.12 mg/kg/injection, schedule: Q01DX009 (ip), vehicle: saline",126 and 146 % of control
same,survivor count,"dose: 1.0 mg/kg/injection, schedule: Q01DX009 (ip), vehicle: saline",6 of 6
same,survivor count,"dose: 2.0 mg/kg/injection, schedule: Q01DX009 (ip), vehicle: saline",5 of 6 and 6 of 6
CC1(CN2CCCC2)CCC(NC(=O)C(c2ccccc2)c2ccccc2)C(C)(C)O1 (stereo unspecified),survivor count,"dose: 100.0 mg/kg/injection, schedule: Q01DX001 (ip), vehicle: saline with Tween-80",3 of 6
same,survivor count,"dose: 200.0 mg/kg/injection, schedule: Q01DX001 (ip), vehicle: saline with Tween-80",0 of 6

# Source: PubChem BioAssay AID330 (DTP/NCI, 2004)
